PubChem BioAssay AID1508597 – Cure First, 2020

Screen: 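Knock-downs altering ovarian cancer cell survival with or without PARP inhibitor rucaparib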 (primary screen)
Cells: human ovarian carcinoma lines grown from tumours: OCI-P5x (papillary serous) and OCI-C5x (clear cell)
Knock-down reagent: siRNA pool against human genes, 1.25 pmol siRNA per well
Timing: 72 h or 96 h, depending on the cell culture
Challenge: rucaparib 20 µM (about IC30) or vehicle, present until read-out
Rucaparib or vehicle: Rucaparib
Cell line: OCI-P5x (serous)
Read-out: 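ATP luminescence measured at 72 or 96 h according to the culture, then normalised and expressed as percent viability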
Direction: viability, normalised: higher = more viable cells remaining
Rule for the call: 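Active when normalised viability falls below 80 percent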
Meaning of the calls: active = viability under 80%; inactive = viability 80% or more
This is an unselected part of the about 2,100 reagents, under one of the conditions tested. 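Calls flag viability under 80% in either arm, not effects specific to rucaparib; the reference for percent is not stated.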 Not given: the 100% reference.

PIK3R3, technical replicate 1 showed viability, normalised (%) = 73.6; active.
With PIK3R3, technical replicate 2 the deposit lists viability, normalised (%) = 80.8; inactive.
PIK3R3, technical replicate 3 showed viability, normalised (%) = 71.1; active.
